Literature values as cited in patent publication US8623415B2, “Method for producing biologically ingestible microparticles, biologically ingestible microparticles, and dispersion and pharmaceutical composition containing the same” (M. Technique Co., Ltd., priority 2007, dated 2014).

Conditions: rat; bulk powder of 20 to 30 μm atomized into powder of 270 nm

COc1ccc2cc([C@H](C)C(=O)O)ccc2c1 [naproxen]
absorption increase by atomizing: increased four times
